These results are taken from the supplement of paper PMC12067093, “Discovery and optimisation of a covalent ligand for TRIM25 and its application to targeted protein ubiquitination” (Chemical Science, 2025).

Compound in the test: CC1Cc2ccccc2N1C(=O)C1CCCN(C1)C(=O)CCl (mixture of isomers) [TRIM25 ligand 11 (diastereomer mixture)]
Kind of test: probe-labelled cysteine peptide fold change vs DMSO (competition) (log2 fold change); higher = less target engagement (more negative = stronger competition). The following applies: THP-1, incubation time: 4 h.

Some of the results follow.
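Note: competitive chemoproteomic profiling in live THP-1 cells with an iodoacetamide desthiobiotin (IA-DTB) probe, comparing probe-labelled peptide intensities in compound-treated cells against DMSO-treated controls.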

In the case of “RBBP4_Q09028_278_PSHSVDAHTAEVNCLSFNPYSEFILATGSADK (UniProt Q09028)”, the “probe-labelled cysteine peptide fold change” value (10 µM) came to 0.24 and the “probe-labelled cysteine peptide fold change” value (50 µM) was 0.154.

Turning to “RBPJ_Q06330_68+72_FFCPPPCVYLMGSGWK (UniProt Q06330)”, the “probe-labelled cysteine peptide fold change” value by setting is: (10 µM) -0.0804; (50 µM) -0.135.

Turning to “RANBP2_P49792_1612_EGQWDCSVCLVR (UniProt P49792)”, the “probe-labelled cysteine peptide fold change” value reads like this: (10 µM) -0.0422; (50 µM) -0.0168.

In the case of “RALGPS2_Q86X27_341_CHSLGYNFIHK (UniProt Q86X27)”, the “probe-labelled cysteine peptide fold change” value is, setting by setting: (10 µM) 0.0251; (50 µM) 0.0325.

In the case of “RARS_P54136_293_AYQCVVLLQGK (UniProt P54136)”, the “probe-labelled cysteine peptide fold change” value came out at 0.107 (10 µM) and 0.0772 (50 µM).

For “RANBP1_P43487_99_ICANHYITPMMELK (UniProt P43487)”, the “probe-labelled cysteine peptide fold change” value was determined as 0.143 (10 µM) and 0.123 (50 µM).

“RANBP10_Q6VN20_610_AGLGSCSFAR (UniProt Q6VN20)”: the “probe-labelled cysteine peptide fold change” value came to 0.00513 (10 µM) and 0.0994 (50 µM).

“RCHY1_Q96PM5_164_VVAHVLPCGHLLHR (UniProt Q96PM5)”: the “probe-labelled cysteine peptide fold change” value runs as follows: (10 µM) -0.27; (50 µM) 0.284.

Consider “RC3H1_Q5TC82_143_KLVTLVHCQLVEEEGR (UniProt Q5TC82)”, for which the “probe-labelled cysteine peptide fold change” value was -0.261 (10 µM) and -0.0517 (50 µM).

As to “RAPGEF1_Q13905_1024_CFQQAHYDMR (UniProt Q13905)”, the “probe-labelled cysteine peptide fold change” value (10 µM) is -0.168 and the “probe-labelled cysteine peptide fold change” value (50 µM) was -0.0846.

In the case of “RCC1L_Q96I51_401_CGLSHFAALTNKGELFVWGK (UniProt Q96I51)”, the “probe-labelled cysteine peptide fold change” value runs as follows: (10 µM) -0.273; (50 µM) -0.19.

With “RBBP5_Q15291_233_EILTCGR (UniProt Q15291)”, the “probe-labelled cysteine peptide fold change” value was determined as 0.0914 (10 µM) and 0.171 (50 µM).

As to “RANBP2_P49792_1502_CAACQNPR (UniProt P49792)”, the “probe-labelled cysteine peptide fold change” value amounted to 0.00948 (10 µM) and 0.213 (50 µM).

In the case of “RANBP2_P49792_1485_EGQWDCSACLVQNEGSSTK (UniProt P49792)”, the “probe-labelled cysteine peptide fold change” value by setting is: (10 µM) 0.0323; (50 µM) 0.187.

“RBBP6_Q7Z6E9_283_DIMTDAVVIPCCGNSYCDECIR (UniProt Q7Z6E9)”: the “probe-labelled cysteine peptide fold change” value was 0.17 (10 µM) and -0.104 (50 µM).

Consider “RARS_P54136_502_VLTAEELNAAQTSVAYGCIK (UniProt P54136)”, for which the “probe-labelled cysteine peptide fold change” value is, setting by setting: (10 µM) 0.0398; (50 µM) 0.105.

Turning to “RB1_P06400_706_HLDQIMMCSMYGICK (UniProt P06400)”, the “probe-labelled cysteine peptide fold change” value by setting is: (10 µM) 0.206; (50 µM) 0.476.

“RANBP2_P49792_707_AEDIENDALSPEEQEECK (UniProt P49792)”: the “probe-labelled cysteine peptide fold change” value by setting is: (10 µM) 0.0213; (50 µM) 0.0682.
